Library screen at single concentrations

Measurements from “University of Dundee, Small-Polar-MMV Screening Library” (2021), ChEMBL document CHEMBL3988442.

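Assay of Toxoplasma gondii numbers, read through their beta-galactosidase reporter with a colour substrate. Compounds at 10 µM. The record gives no direction; the compounds picked for IC50 retests had high values, so higher reads as fewer parasites. Of about 67,000 compounds tested this way, about 260 (0.38%) reached 50% or more in at least one test.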

Values are the deposited “Percent Effect”, in %.
How 0% and 100% were set is not recorded. Most values in the screen are low, and negative values occur.
Compounds were drawn at random from those tested, without regard to their results.

- Cc1cc(CN2CCOC(Cn3nc(C)cc3C)C2)on1 (stereo not given) | -42.92%
- CCc1nc(CN2CCCC2C(=O)NC)cs1 (stereo not given) | -1.702%
- Cc1cnc(CN2CCC(N(C)Cc3nnc(C4CC4)n3C)C2)cn1 (stereo not given) | 2.818%
- O=C(O)C(F)(F)F.O=C(O)C(F)(F)F.[H][C@@]12CCN(Cc3ccc(C)s3)C[C@]1([H])[C@@H](CN(C)Cc1ccco1)OC2 | -0.1808%
- O=C(O)C(F)(F)F.O=C1CCCN1CC1CN(CC2CCOCC2)Cc2nccn2C1 (stereo not given) | -0.9029%
- Cc1ccc(N2CCCC(NCC3=Cc4ccccc4OC3)C2)nn1 (stereo not given) | 14.72%
- CCc1cc(NC2CCOCC2)n2nc(C)c(C)c2n1 | -4.851%
- O=C(O)C(F)(F)F.O=C(c1ccc2ccc(N3CCN(CC4CC4)CC3)n2c1)N1CCCO1 | 9.28%
- COCC1CC2(CCN(Cc3ccoc3)CC2)CN1C(C)C.O=C(O)C(F)(F)F.O=C(O)C(F)(F)F (stereo not given) | -1.011%
- Cc1nc2oc(C(=O)N3CCOCC3)c(N)c2c2c1CCCC2 | -2.224%
- CCNc1cc2c(nn1)CCN(C(=O)c1cc(C)n(C3CC3)c1C)C2 | -1.355%
- Cc1nc(C)n(CC2CCCN(c3ncnc4c3CCC4)C2)n1 (stereo not given) | -2.929%
- CCCC1COCCN1Cc1ccc(S(=O)(=O)NC)cc1 (stereo not given) | -58.1%
- CCN1CCC(c2nc3ccc(NC(C)C)cn3n2)CC1.O=C(O)C(F)(F)F | 1.381%
- [H][C@]12CC[C@]([H])(CN(C(=O)c3ccccc3)C1)N(Cc1cc(F)ccc1Cl)C2 | 11.92%
- O=C(O)C(F)(F)F.c1coc(CN2CCCn3c(nnc3Cn3cccn3)C2)c1 | 6.958%
- O=C1CCCN1CCN1CCCC(c2ccn[nH]2)C1 (stereo not given) | 2.598%
- Cc1ccc(OCCN(C)C(=O)CCCN2CCCC2=O)c(C)c1 | -41.17%
- Cc1cc(C)n(-c2ccc(NCCNS(=O)(=O)c3ccccc3)nn2)n1 | 1.79%
- CN(Cc1nc(N)c2ccccc2n1)CC1CCCN1c1cccnn1 (stereo not given) | 0.886%
- O=C(O)C(F)(F)F.O=C(O)C(F)(F)F.[H][C@]12CCN(Cc3ccccn3)C[C@@]1([H])OCCN(Cc1csc(C)n1)C2 | 2.2%
- Fc1cc(CNc2nncs2)ccc1Cl | -2.953%
- CC(NC(=O)CCc1nc(-c2nnc[nH]2)no1)c1ccc(F)cc1F (stereo not given) | -3.386%
- CC(=O)N(Cc1ncc(C)o1)C1CCN(Cc2ccc(F)c(F)c2)C1 (stereo not given) | 0.1319%
- O=C(c1ccoc1)N1CCCC1C1CCN(Cc2ccccc2)CC1 (stereo not given) | 6.019%
- CC(C)[C@@H]1CN(S(=O)(=O)Cc2ccccc2)C[C@H]1NS(=O)(=O)N(C)C | 2.174%
- COc1ccc(Cl)cc1CCNC(=O)NCc1ncnn1C | -8.401%
- O=C(NC1CC1)c1nc(COc2ccc3c(c2)OCO3)no1 | 13.21%
- Cc1nc2ccccc2c(=O)n1CCC(=O)N1CCCCCC1 | -3.823%
- Cc1nc2c(C#N)cnn2c(C)c1CCC(=O)N(C)C1CC1 | -1.983%
- CCc1ccc(C(=O)N2CCC(c3nncn3CC)CC2)s1 | 15.09%
- CN(Cc1cccc(-n2cccn2)c1)C(=O)c1ccnc(N)c1 | -10.95%
- NCC1CCC2(CCN(C(=O)c3ccccn3)CC2)CO1.O=C(O)C(F)(F)F.O=C(O)C(F)(F)F (stereo not given) | -37.7%
- CS(=O)(=O)NCC1CCCN(C(=O)COCC2CC2)C1 (stereo not given) | -19.81%
- CCOC(=O)C1(O)CCN(C(=O)Nc2cccc(F)c2)CC1 | -3.79%
- Cc1cn2nc(N3CCCC3CC(C)(C)C)sc2n1 (stereo not given) | 2.306%
- CC(C)(C)NCc1ccc(OCc2ccc3c(c2)OCCO3)cc1.Cl | -4.151%
- CCCS(=O)(=O)N1CCN(c2cc(-n3ccnc3)nc(C)n2)CC1 | 6.455%
- Cc1cc(NCc2cccc(C#N)c2)ccc1C(=O)N(C)C | 12.66%
- CN1CCN(c2ncccn2)CC12CCC(=O)N(CC1CC1)CC2 (stereo not given) | -11.94%
- CCOCCN1CCC(c2cncc(C)n2)CC1 | 3.74%
- CCCN(Cc1cccnc1)C(=O)C1CCS(=O)(=O)CC1 | -8.618%
- O=C(NCC(O)c1cccc(O)c1)C1CCN(C2CCCCC2)CC1 (stereo not given) | -0.8102%
- COc1ccc(-c2cc3nn(CC(=O)NC(C)C)c(=O)n3c(C)n2)cc1 | -7.069%
- Cc1csc(C2(NC(=O)NCCN3CCOCC3)CCCC2)n1 | -1.418%
- Cc1ccc(S(=O)(=O)Nc2ccc(-n3cccc3C(=O)O)c(C)c2)cc1 | 0.6977%
- NCc1ccc(Oc2cccc(Cl)c2Cl)nc1 | 1.242%
- CC(C)[C@H](NS(C)(=O)=O)C(=O)NCc1cc(-c2ccccc2)nn1C | -0.2419%
- O=C(O)C(F)(F)F.O=C(O)C(F)(F)F.[H][C@@]12CO[C@@H](CN3CCOCC3)[C@]1([H])CCN(Cc1ccsc1)C2 | 9.283%
- CC(=O)N1CCCC(C(=O)N2Cc3nc(C)n(C)c(=O)c3C2)C1 (stereo not given) | 11.97%
- COc1c(C2CCCN2C(=O)c2cccc(C)n2)c(C)nn1C (stereo not given) | 2.293%
- Cc1cccc(C(C)CNC(=O)N2CCC3(C2)OCCO3)c1 (stereo not given) | -3.544%
- Cc1csc(C2CCCN(C(=O)Cn3ccccc3=O)C2)n1 (stereo not given) | 4.308%

For reference, 5 entries once more:

- COCC1CC2(CCN(Cc3ccoc3)CC2)CN1C(C)C.O=C(O)C(F)(F)F.O=C(O)C(F)(F)F (stereo not given) | -1.011%
- CC(C)[C@H](NS(C)(=O)=O)C(=O)NCc1cc(-c2ccccc2)nn1C | -0.2419%
- COc1ccc(-c2cc3nn(CC(=O)NC(C)C)c(=O)n3c(C)n2)cc1 | -7.069%
- O=C(O)C(F)(F)F.O=C1CCCN1CC1CN(CC2CCOCC2)Cc2nccn2C1 (stereo not given) | -0.9029%
- CC(=O)N1CCCC(C(=O)N2Cc3nc(C)n(C)c(=O)c3C2)C1 (stereo not given) | 11.97%